Data as given in PubChem BioAssay AID1259308 (NCATS, 2017).

Test: 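Genes whose loss raises luciferase production in HEK293 cells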 (primary screen)
Cell system: human HEK293 embryonic kidney cells stably expressing firefly luciferase (HEK-CMV-Luc2-Hygro)
Reagent: single siRNA against human genes, 0.8 pmol siRNA per well
Timing: 72 h
Measurement: 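Luciferase light (ONE-Glo) measured on one replicate plate set and viability (CellTiter-Glo) on the other, scaled to a negative control siRNA, with robust z-scores and luciferase per cell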
Reading the numbers: total luciferase, z-score and total luciferase, % of control: higher = more reporter protein produced
Call rule: 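Active when the median/MAD z-score for overall luciferase is greater than 3; a gene was taken forward for validation with new siRNAs if at least two of its three siRNAs passed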
Meaning of the calls: active = raised luciferase; inactive = no rise
The deposit covers about 59,000 reagents; shown is a random part of them. About 1,510 of all reagents (2.6%) were called active. 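Calls use total luciferase alone and ignore viability, so some active siRNAs may act by altering cell number.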 Unmarked entries are inactive. The numbers tell different reagents against one gene apart. Further read-outs or replicates are left out here.

target gene | siRNA no. | total luciferase, z-score | total luciferase, % of control
SMG6 (GeneID 23293) | 1 | 0.478 | 91.4
SMG6 (GeneID 23293) | 2 | 0.178 | 85.4
SMG6 (GeneID 23293) | 3 | -0.982 | 62.4
JAG1 (GeneID 182) | 1 | 2.4 | 130
JAG1 (GeneID 182) | 2 | -0.426 | 73.4
JAG1 (GeneID 182) | 3 | -1.39 | 54.2
WWP1 (GeneID 11059) | 1 | -0.914 | 63.7
WWP1 (GeneID 11059) | 2 | 4.2 (active) | 165
WWP1 (GeneID 11059) | 3 | -0.218 | 77.5
AFF3 (GeneID 3899) | 1 | 0.0739 | 83.4
AFF3 (GeneID 3899) | 2 | -0.198 | 77.9
AFF3 (GeneID 3899) | 3 | -1.17 | 58.5
KRT23 (GeneID 25984) | 1 | 0.707 | 96
KRT23 (GeneID 25984) | 2 | -0.0282 | 81.3
KRT23 (GeneID 25984) | 3 | -0.467 | 72.6
PPP1CB (GeneID 5500) | 1 | 0.41 | 90
PPP1CB (GeneID 5500) | 2 | 0.0909 | 83.7
PPP1CB (GeneID 5500) | 3 | 1.28 | 107
MIR9-2HG (GeneID 645323) | 1 | -0.804 | 65.9
MIR9-2HG (GeneID 645323) | 2 | -0.66 | 68.8
MIR9-2HG (GeneID 645323) | 3 | 0.941 | 101
NME3 (GeneID 4832) | 1 | 2.38 | 129
NME3 (GeneID 4832) | 2 | 3.22 (active) | 146
NME3 (GeneID 4832) | 3 | 0.184 | 85.5
OTUD3 (GeneID 23252) | 1 | -0.0227 | 81.4
OTUD3 (GeneID 23252) | 2 | 0.116 | 84.2
OTUD3 (GeneID 23252) | 3 | -1.09 | 60.3
PCNX3 (GeneID 399909) | 1 | 2.54 | 132
PCNX3 (GeneID 399909) | 2 | -0.904 | 63.9
PCNX3 (GeneID 399909) | 3 | 0.367 | 89.2
LGALS8 (GeneID 3964) | 1 | -0.349 | 74.9
LGALS8 (GeneID 3964) | 2 | 0.277 | 87.4
LGALS8 (GeneID 3964) | 3 | 1.33 | 108
SLBP (GeneID 7884) | 1 | -0.245 | 77
SLBP (GeneID 7884) | 2 | 1.14 | 105
SLBP (GeneID 7884) | 3 | -0.56 | 70.7
UHRF1 (GeneID 29128) | 1 | 0.707 | 95.9
UHRF1 (GeneID 29128) | 2 | 0.594 | 93.7
UHRF1 (GeneID 29128) | 3 | 0.365 | 89.1
LYPD8 (GeneID 646627) | 1 | 1.22 | 106
LYPD8 (GeneID 646627) | 2 | -0.0236 | 81.4
LYPD8 (GeneID 646627) | 3 | -1.44 | 53.3
GSTP1 (GeneID 2950) | 1 | 1.85 | 119
GSTP1 (GeneID 2950) | 2 | -0.295 | 76
GSTP1 (GeneID 2950) | 3 | 0.0854 | 83.6
S100A11 (GeneID 6282) | 1 | 0.28 | 87.5
S100A11 (GeneID 6282) | 2 | 1.31 | 108
S100A11 (GeneID 6282) | 3 | -0.0727 | 80.4
BDH2 (GeneID 56898) | 1 | 1.27 | 107
BDH2 (GeneID 56898) | 2 | -0.181 | 78.3
BDH2 (GeneID 56898) | 3 | 1.23 | 106
GPATCH11P1 (GeneID 344709) | 1 | 2.2 | 126
GPATCH11P1 (GeneID 344709) | 2 | -0.68 | 68.4
GPATCH11P1 (GeneID 344709) | 3 | -0.819 | 65.6
CHP1 (GeneID 11261) | 1 | 1.11 | 104
CHP1 (GeneID 11261) | 2 | 1.46 | 111
CHP1 (GeneID 11261) | 3 | 0.285 | 87.6
